Laboratory results reported in patent US11814393B2, “Substituted guanidine compounds” (UBE CORPORATION, priority 2016, dated 2023).
Some results were stated once for a whole list of compounds, not compound by compound.

Tests used:
[1] = system: human recombinant CYP enzyme 3A4, 2D6, 2C9, 2C19, 1A2 or 2C8; experiment: Cytochrome P450 (CYP) metabolism test; format: in vitro ADME; details: with all kinds of CYP (3A4, 2D6, 2C9, 2C19, 1A2, 2C8); compound 5 μmon; 37° C., pH 7.4
[2] = Rat pharmacokinetic (PK) study (concentration of compound in plasma after oral administration); format: in vivo, SD rats; details: dose 3 mg/kg
Protocol: Rat Pharmacokinetic (PK) Study (Concentration of Compound in Plasma after Oral Administration)
Seven to eight week old SD rats (weighing 180 to 250 g) were orally administered with a suspension of the compound in 0.5 W/V % methylcellulose 400 solution. Under anesthesia, the blood was collected from the jugular vein in EDTA tubes at 0.25, 0.5, 1, 2, 4, 6, 8 and 24 hours after the administration of the compound. The blood was centrifuged at 4° C. and 6000 g for 3 minutes to give plasma. Acetonitrile was added to the plasma, and the mixture was stirred with a shaker at 750 rpm for 3 minutes and was deproteinized by centrifugation at 3700 rpm for 2 minutes. The obtained sample was analyzed by LC/MS under the following conditions.
The concentration of the compound in the plasma at each blood sampling time was determined by an internal standard method, and AUC all (Area Under Curve) was calculated by a trapezoidal method.
The following LC and MS systems were used for measurement.
LC: CBM 30 series manufactured by Shimadzu Corporation
Column: Phenomenex Kinetex C18 (50×2.1 mm, 2.6 μm)
Column temperature: 40° C.
Mobile phase A: 0.1% aqueous formic acid solution, mobile phase B: 0.1% formic acid, 50% acetonitrile/methanol mixture
MS: 3200 manufactured by SCIEX

In the case of `N=C(N)NC(=O)OCc1cccc(-c2cnc(N3CC4(COC4)C3)c(F)c2)c1F` [Example 16, 2-Fluoro-3-[5-fluoro-6-(2-oxa-6-azaspiro[3.3]heptan-6-yl)pyridin-3-yl]benzyl carbamimidoylcarbamate], the elimination rate [1] is reported as “not more than 0.030 nmol/min/200 pmol-CYP” and the “AUC (AUC all)” value [2] is reported as ≥ 1000 ngh/mL.
